{"source": "patent US20220146519A1", "about": "(SEOUL NATIONAL UNIVERSITY HOSPITAL, priority 2019, published 2022)", "experiment": "peptide made by a vendor", "conditions": "conjugation step", "data": [{"substance": "FITC-D-[c(RGDfK)]2", "values": [{"measurement": "final HPLC purity", "value": "at least 95% purity"}]}]}
